Experimental data published in the supplement of paper PMC10849652.
The other results are listed elsewhere or left out.

Amino acid sequences for entries named in this document (tags omitted). A change or cut given only in a name is not applied to a line headed by its entry.
UniProt O00748: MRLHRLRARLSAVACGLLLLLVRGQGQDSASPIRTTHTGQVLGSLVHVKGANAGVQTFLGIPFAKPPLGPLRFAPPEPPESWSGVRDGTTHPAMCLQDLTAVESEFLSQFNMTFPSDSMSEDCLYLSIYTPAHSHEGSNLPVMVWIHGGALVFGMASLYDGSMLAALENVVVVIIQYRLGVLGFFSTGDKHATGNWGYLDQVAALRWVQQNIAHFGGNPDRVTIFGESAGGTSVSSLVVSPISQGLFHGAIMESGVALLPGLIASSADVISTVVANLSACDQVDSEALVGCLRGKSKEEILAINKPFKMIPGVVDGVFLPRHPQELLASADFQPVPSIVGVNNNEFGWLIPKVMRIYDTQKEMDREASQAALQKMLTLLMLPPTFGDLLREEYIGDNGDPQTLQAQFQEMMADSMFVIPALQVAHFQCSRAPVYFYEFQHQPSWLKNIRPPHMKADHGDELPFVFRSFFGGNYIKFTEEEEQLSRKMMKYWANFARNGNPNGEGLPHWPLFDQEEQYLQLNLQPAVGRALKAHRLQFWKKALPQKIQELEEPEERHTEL
UniProt Q9UKY7: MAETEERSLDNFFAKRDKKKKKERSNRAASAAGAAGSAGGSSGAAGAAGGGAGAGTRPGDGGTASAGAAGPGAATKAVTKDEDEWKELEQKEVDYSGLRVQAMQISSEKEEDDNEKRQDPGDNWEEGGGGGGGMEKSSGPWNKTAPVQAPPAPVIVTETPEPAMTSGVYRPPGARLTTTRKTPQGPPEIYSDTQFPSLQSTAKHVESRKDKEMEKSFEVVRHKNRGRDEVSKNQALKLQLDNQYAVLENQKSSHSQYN
UniProt P08603, whole entry, looked up: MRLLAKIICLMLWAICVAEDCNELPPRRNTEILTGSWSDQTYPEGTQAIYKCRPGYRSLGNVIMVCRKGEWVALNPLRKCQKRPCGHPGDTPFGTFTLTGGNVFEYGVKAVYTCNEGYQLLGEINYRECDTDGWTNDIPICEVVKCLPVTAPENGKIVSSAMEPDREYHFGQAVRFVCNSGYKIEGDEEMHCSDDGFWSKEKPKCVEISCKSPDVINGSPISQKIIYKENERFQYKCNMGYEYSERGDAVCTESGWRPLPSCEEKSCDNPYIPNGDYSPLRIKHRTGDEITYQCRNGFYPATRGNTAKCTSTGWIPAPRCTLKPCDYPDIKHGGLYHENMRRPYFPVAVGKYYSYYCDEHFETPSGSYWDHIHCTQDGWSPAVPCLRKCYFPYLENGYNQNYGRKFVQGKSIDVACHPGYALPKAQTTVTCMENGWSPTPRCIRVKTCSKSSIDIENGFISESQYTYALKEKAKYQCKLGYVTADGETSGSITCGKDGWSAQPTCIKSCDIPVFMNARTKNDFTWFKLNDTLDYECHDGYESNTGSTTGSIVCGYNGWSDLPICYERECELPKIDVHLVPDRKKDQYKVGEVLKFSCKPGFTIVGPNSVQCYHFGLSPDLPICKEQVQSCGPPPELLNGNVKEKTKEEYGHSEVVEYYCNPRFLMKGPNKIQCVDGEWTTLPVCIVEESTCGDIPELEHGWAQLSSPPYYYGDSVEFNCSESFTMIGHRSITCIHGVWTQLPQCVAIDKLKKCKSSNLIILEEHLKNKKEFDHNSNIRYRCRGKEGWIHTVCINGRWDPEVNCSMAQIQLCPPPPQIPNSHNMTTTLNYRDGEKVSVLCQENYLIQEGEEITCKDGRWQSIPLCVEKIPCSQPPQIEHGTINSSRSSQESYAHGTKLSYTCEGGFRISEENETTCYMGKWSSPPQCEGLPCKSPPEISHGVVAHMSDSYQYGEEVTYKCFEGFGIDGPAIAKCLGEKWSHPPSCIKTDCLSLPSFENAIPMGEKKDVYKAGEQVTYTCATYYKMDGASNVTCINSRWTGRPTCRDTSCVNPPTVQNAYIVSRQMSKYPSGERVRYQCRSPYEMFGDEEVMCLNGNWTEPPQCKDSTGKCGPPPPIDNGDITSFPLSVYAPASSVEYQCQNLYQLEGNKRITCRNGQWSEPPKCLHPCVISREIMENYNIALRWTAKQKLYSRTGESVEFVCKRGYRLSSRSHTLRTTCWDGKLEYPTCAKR
UniProt Q00587: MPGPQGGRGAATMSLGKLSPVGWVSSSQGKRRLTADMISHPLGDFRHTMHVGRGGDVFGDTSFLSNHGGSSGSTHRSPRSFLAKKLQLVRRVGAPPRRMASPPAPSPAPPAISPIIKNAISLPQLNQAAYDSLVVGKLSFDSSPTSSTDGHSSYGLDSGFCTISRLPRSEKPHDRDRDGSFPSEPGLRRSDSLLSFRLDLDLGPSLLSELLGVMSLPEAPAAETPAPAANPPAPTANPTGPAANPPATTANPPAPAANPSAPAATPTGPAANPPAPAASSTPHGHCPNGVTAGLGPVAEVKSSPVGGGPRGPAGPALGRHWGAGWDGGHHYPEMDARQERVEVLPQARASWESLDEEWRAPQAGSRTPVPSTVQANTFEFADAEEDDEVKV
UniProt Q00534, whole entry, looked up: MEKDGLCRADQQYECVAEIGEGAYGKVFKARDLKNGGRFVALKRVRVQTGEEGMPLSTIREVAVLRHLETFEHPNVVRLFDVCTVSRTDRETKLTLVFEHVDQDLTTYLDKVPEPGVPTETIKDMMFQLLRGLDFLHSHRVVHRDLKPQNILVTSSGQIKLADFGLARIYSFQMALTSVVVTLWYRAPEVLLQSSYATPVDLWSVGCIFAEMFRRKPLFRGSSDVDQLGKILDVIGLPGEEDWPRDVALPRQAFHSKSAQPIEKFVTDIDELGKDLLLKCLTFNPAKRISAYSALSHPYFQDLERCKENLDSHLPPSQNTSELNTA
UniProt Q9Y6H1: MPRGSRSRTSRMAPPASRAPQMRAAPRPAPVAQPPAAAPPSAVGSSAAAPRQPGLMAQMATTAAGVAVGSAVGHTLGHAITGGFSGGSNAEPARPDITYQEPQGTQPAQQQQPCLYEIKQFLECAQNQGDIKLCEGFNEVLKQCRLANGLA
UniProt P50613: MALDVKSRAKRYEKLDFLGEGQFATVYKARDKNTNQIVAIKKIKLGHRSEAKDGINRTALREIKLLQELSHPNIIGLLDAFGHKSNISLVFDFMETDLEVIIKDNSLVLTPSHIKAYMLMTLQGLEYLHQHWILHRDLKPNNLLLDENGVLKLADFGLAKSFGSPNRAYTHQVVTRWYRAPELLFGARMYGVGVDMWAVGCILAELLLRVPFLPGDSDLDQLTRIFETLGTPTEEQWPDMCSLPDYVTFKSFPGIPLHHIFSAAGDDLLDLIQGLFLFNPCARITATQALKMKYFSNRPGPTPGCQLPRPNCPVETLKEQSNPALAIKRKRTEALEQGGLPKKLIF
UniProt Q9BWS9: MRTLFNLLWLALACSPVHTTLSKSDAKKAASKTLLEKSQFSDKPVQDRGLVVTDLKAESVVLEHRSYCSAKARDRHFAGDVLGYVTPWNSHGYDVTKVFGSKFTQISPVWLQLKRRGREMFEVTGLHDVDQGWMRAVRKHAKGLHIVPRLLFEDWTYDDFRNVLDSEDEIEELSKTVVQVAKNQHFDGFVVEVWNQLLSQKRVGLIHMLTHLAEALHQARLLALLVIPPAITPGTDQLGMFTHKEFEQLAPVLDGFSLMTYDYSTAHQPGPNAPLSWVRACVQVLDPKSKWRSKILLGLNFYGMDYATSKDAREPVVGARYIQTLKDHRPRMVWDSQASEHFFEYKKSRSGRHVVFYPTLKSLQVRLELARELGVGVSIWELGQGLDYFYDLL
UniProt Q9NYV4, whole entry, looked up: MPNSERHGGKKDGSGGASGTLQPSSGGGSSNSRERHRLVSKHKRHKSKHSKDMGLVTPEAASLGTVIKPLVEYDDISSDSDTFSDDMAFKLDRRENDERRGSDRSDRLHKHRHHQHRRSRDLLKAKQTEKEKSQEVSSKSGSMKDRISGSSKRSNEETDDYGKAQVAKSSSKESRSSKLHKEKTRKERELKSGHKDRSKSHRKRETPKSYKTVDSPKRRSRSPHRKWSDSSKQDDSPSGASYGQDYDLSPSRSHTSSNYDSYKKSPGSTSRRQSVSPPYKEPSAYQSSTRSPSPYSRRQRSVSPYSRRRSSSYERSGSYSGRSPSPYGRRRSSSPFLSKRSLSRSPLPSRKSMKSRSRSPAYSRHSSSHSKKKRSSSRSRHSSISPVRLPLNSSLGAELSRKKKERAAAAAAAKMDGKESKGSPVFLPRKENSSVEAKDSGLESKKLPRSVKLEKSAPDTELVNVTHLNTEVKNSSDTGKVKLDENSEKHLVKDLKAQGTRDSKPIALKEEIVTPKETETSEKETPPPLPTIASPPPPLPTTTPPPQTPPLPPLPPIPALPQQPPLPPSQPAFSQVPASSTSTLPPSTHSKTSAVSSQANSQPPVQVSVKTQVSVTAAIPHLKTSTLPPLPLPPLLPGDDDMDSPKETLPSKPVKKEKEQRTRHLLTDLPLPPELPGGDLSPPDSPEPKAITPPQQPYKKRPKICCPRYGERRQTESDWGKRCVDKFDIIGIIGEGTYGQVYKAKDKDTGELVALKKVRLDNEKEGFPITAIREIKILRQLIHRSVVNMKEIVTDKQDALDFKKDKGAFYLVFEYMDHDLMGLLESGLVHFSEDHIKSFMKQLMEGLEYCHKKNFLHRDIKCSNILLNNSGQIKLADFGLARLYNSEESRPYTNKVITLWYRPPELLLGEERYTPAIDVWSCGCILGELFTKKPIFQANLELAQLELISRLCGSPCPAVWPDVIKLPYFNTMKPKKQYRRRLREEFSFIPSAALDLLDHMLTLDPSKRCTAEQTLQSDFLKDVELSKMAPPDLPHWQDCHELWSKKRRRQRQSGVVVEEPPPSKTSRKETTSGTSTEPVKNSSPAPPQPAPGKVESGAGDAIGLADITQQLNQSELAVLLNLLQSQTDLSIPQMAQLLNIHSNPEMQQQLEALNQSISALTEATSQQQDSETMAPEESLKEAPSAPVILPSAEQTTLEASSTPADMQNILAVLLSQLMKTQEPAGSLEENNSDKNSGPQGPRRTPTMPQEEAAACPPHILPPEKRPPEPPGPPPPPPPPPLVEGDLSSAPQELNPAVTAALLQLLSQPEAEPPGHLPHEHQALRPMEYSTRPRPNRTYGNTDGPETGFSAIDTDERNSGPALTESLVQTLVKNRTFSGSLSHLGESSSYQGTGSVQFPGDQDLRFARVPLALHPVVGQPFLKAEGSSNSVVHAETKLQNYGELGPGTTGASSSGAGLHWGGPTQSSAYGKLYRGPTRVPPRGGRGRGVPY
UniProt Q9NZZ3: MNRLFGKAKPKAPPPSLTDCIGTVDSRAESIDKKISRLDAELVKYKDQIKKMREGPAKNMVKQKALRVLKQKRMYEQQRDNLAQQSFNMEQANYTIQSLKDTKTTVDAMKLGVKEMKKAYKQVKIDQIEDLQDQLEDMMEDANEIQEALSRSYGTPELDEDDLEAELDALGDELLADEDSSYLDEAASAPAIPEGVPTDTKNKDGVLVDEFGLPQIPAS
UniProt P06493, whole entry, looked up: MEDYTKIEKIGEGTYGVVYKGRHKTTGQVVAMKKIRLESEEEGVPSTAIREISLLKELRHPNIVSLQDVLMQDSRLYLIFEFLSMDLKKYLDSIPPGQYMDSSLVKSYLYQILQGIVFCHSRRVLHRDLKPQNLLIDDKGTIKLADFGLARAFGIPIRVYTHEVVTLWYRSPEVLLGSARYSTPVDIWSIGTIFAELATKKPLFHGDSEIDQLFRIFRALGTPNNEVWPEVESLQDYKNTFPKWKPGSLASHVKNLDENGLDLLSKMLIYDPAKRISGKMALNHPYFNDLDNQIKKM
UniProt Q9UQN3, whole entry, looked up: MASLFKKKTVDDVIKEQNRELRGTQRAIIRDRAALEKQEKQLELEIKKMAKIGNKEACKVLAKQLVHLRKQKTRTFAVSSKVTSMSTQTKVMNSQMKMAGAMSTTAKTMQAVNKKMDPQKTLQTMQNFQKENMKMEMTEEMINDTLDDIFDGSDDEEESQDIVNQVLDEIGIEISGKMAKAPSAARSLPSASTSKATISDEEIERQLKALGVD
UniProt Q7LBR1: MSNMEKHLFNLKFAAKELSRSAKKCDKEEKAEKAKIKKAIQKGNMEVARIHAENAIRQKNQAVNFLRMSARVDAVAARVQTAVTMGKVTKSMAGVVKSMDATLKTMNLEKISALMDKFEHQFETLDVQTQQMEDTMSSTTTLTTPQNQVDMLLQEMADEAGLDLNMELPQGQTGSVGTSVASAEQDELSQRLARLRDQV
UniProt Q9H3Q1: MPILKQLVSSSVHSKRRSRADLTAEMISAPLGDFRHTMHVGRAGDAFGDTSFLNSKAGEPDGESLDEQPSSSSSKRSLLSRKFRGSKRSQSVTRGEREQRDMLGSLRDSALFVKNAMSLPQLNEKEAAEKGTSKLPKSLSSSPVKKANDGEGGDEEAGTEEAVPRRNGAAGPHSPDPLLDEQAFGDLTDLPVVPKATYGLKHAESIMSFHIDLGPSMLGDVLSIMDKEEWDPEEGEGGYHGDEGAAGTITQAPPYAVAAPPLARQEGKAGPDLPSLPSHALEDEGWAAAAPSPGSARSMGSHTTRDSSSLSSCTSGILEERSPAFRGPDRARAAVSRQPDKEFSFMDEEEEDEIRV

How the values were obtained:
Assay in all cases: log2 fold change, soluble protein after heating vs DMSO (PISA); higher = thermal stabilisation; K562 cells, 10 uM, 30 min; active = over 0.2 and 3.5 SD of the protein, either way, in both replicates (recomputed)
bafetinib = compound: Cc1ccc(NC(=O)c2ccc(CN3CC[C@H](N(C)C)C3)c(C(F)(F)F)c2)cc1Nc1nccc(-c2cncnc2)n1 [bafetinib]
How it was run: (§1)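 Thermal stability values are relative to control samples and come from duplicates. They are expressed as log2 fold changes. For measurement, K562 cells (2×10^6 cells/mL) received 10 μM compound for 30 min, and aliquots were heated for 3 min over 48°C-58°C, pooled, and extracted at 4°C in PBS with 0.5% NP-40. Soluble protein, the supernatant after 21,000xg for 90 min, was quantified by TMTpro 16plex LC-MS/MS with equalised channel sums.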

[1] = compound: Cc1cccc(CC(=O)N2CCc3c2ccc(-c2cn(C)c4ncnc(N)c24)c3F)n1
How it was run: as §1

nilotinib = compound: Cc1cn(-c2cc(NC(=O)c3ccc(C)c(Nc4nccc(-c5cccnc5)n4)c3)cc(C(F)(F)F)c2)cn1 [nilotinib]
How it was run: as §1

[2] = compound: Cc1nc(Nc2n[nH]c3c2CN(C(=O)N[C@H](CN(C)C)c2ccccc2)C3(C)C)c2sccc2n1
How it was run: as §1

dasatinib = compound: Cc1nc(Nc2ncc(C(=O)Nc3c(C)cccc3Cl)s2)cc(N2CCN(CCO)CC2)n1 [dasatinib]
How it was run: as §1

[3] = compound: Cc1ncc(-c2ccnc(Nc3ccc(S(C)(=O)=O)cc3)n2)n1C(C)C
How it was run: as §1

[4] = compound: Cn1cc(-c2ccc3c(c2)CCN3C(=O)Cc2cccc(C(F)(F)F)c2)c2c(N)ncnc21
How it was run: as §1

[5] = compound: Cn1cc(-c2ccc3nnc(C(F)(F)c4ccc5ncccc5c4)n3n2)cn1
How it was run: as §1

tipifarnib = compound: Cn1cncc1[C@@](N)(c1ccc(Cl)cc1)c1ccc2c(c1)c(-c1cccc(Cl)c1)cc(=O)n2C [tipifarnib]
How it was run: as §1

mubritinib = compound: FC(F)(F)c1ccc(/C=C/c2nc(COc3ccc(CCCCn4ccnn4)cc3)co2)cc1 [mubritinib]
How it was run: as §1

[6] = compound: NC(=O)Nc1cc(-c2cccc(F)c2)sc1C(=O)N[C@H]1CCCNC1
How it was run: as §1

[7] = compound: NC(=O)c1cnc(N[C@@H]2CCCC[C@@H]2N)nc1Nc1cccc(-n2nccn2)c1
How it was run: as §1

[8] = compound: NC1(c2ccc(-c3nc4ccn5c(=O)[nH]nc5c4cc3-c3ccccc3)cc2)CCC1
How it was run: as §1

[9] = compound: NCC(=O)Nc1ccc(-n2nc(C(F)(F)F)cc2-c2ccc3c(ccc4ccccc43)c2)cc1
How it was run: as §1

entinostat = compound: Nc1ccccc1NC(=O)c1ccc(CNC(=O)OCc2cccnc2)cc1 [entinostat]
How it was run: as §1

vorinostat = compound: O=C(CCCCCCC(=O)Nc1ccccc1)NO [vorinostat]
How it was run: as §1

citarinostat = compound: O=C(CCCCCCNC(=O)c1cnc(N(c2ccccc2)c2ccccc2Cl)nc1)NO [citarinostat]
How it was run: as §1

silmitasertib = compound: O=C(O)c1ccc2c(c1)nc(Nc1cccc(Cl)c1)c1ccncc12 [silmitasertib]
How it was run: as §1

[10] = compound: O=C1NC(=O)C(c2cnc3ccccn23)=C1c1cn2c3c(cc(F)cc13)CN(C(=O)N1CCCCC1)CC2
How it was run: as §1

[11] = compound: c1cc(OCCN2CCCCC2)cc(-c2n[nH]c3ccc(-c4nnc[nH]4)cc23)c1
How it was run: as §1

| Target | log2 fold change (bafetinib) | log2 fold change [1] | log2 fold change (nilotinib) | log2 fold change [2] | log2 fold change (dasatinib) | log2 fold change [3] | log2 fold change [4] | log2 fold change [5] | log2 fold change (tipifarnib) | log2 fold change (mubritinib) | log2 fold change [6] | log2 fold change [7] | log2 fold change [8] | log2 fold change [9] | log2 fold change (entinostat) | log2 fold change (vorinostat) | log2 fold change (citarinostat) | log2 fold change (silmitasertib) | log2 fold change [10] | log2 fold change [11] |
| --- | --- | --- | --- | --- | --- | --- | --- | --- | --- | --- | --- | --- | --- | --- | --- | --- | --- | --- | --- | --- |
| CES2 isoform 4 (UniProt O00748) | inactive: -0.006 | inactive: -0.104 | inactive: 0.274 | inactive: -0.045 | inactive: 0.119 | inactive: -0.036 | active: 0.489 | inactive: 0.166 | inactive: 0.28 | inactive: 0.111 | inactive: 0.116 | inactive: 0.017 | inactive: -0.051 | inactive: 0.095 | inactive: -0.083 | inactive: -0.017 | inactive: -0.083 | inactive: 0.076 | inactive: 0.027 | inactive: -0.016 |
| CDV3 (UniProt Q9UKY7) | inactive: 0.003 | inactive: -0.044 | inactive: 0.024 | inactive: 0.01 | inactive: 0.031 | inactive: -0.008 | inactive: 0.035 | inactive: 0.029 | inactive: 0.044 | inactive: 0.032 | inactive: 0.092 | inactive: -0.001 | inactive: 0.048 | inactive: 0.053 | inactive: 0.03 | inactive: -0.029 | inactive: -0.028 | inactive: -0.037 | inactive: 0.065 | inactive: 0.019 |
| CFH (UniProt P08603) | inactive: 0.06 | inactive: 0.03 | inactive: 0.011 | inactive: 0.161 | inactive: 0.003 | inactive: 0.065 | inactive: -0.038 | inactive: -0.091 | inactive: 0.102 | inactive: 0.185 | inactive: -0.053 | inactive: -0.012 | inactive: -0.031 | inactive: 0.025 | inactive: -0.079 | inactive: -0.157 | inactive: -0.058 | inactive: 0.012 | inactive: 0.013 | inactive: 0.082 |
| CDC42EP1 (UniProt Q00587) | inactive: -0.115 | inactive: 0.092 | inactive: -0.072 | active: -0.59 | inactive: -0.2 | inactive: -0.211 | inactive: 0.079 | inactive: 0.051 | inactive: 0.049 | inactive: 0.007 | inactive: -0.272 | inactive: -0.258 | inactive: -0.399 | inactive: -0.063 | inactive: 0.1 | inactive: 0.158 | inactive: 0.108 | inactive: -0.04 | inactive: -0.118 | inactive: -0.138 |
| CDK6 (UniProt Q00534) | inactive: -0.017 | inactive: -0.002 | inactive: -0.021 | inactive: -0.079 | inactive: -0.01 | inactive: 0.081 | inactive: -0.019 | inactive: -0.033 | inactive: -0.043 | inactive: 0.012 | inactive: -0.004 | inactive: -0.082 | inactive: -0.017 | inactive: -0.003 | inactive: 0.009 | inactive: 0.005 | inactive: -0.006 | inactive: 0.131 | inactive: 0.146 | inactive: 0.017 |
| CHCHD1 (UniProt Q96BP2) | inactive: -0.084 | inactive: 0.081 | inactive: -0.007 | inactive: 0.02 | inactive: -0.057 | inactive: -0.031 | inactive: -0.153 | inactive: 0.105 | inactive: 0.077 | inactive: 0.104 | inactive: 0.017 | inactive: -0.142 | inactive: -0.149 | inactive: -0.023 | inactive: 0.03 | inactive: 0.023 | inactive: 0.009 | inactive: 0.031 | inactive: -0.015 | inactive: -0.169 |
| CHCHD2 (UniProt Q9Y6H1) | inactive: -0.026 | inactive: -0.002 | inactive: 0.037 | inactive: 0.029 | inactive: 0.075 | inactive: -0.086 | inactive: 0.116 | inactive: -0.02 | inactive: -0.06 | inactive: 0.04 | inactive: -0.039 | inactive: -0.011 | inactive: 0.022 | inactive: 0.012 | inactive: -0.01 | inactive: 0.005 | inactive: 0.018 | inactive: 0.009 | inactive: -0.13 | inactive: -0.008 |
| CDK7 (UniProt P50613) | inactive: -0.061 | inactive: -0.004 | inactive: -0.01 | inactive: 0.115 | inactive: 0.052 | inactive: -0.037 | inactive: -0.024 | inactive: 0.008 | inactive: 0.012 | inactive: 0.029 | inactive: -0.017 | inactive: -0.027 | inactive: -0.003 | inactive: -0.03 | inactive: 0.014 | inactive: -0.007 | inactive: 0.03 | inactive: 0.008 | inactive: -0.042 | inactive: -0.022 |
| CHID1 (UniProt Q9BWS9) | inactive: 0.037 | inactive: 0.013 | inactive: -0.006 | inactive: 0.036 | inactive: 0.006 | inactive: -0.085 | inactive: -0.104 | inactive: -0.031 | inactive: 0.025 | inactive: -0.115 | inactive: 0.049 | inactive: -0.013 | inactive: -0.064 | inactive: 0.05 | inactive: 0.011 | inactive: -0.016 | inactive: 0.068 | inactive: 0.001 | inactive: -0.008 | inactive: 0.001 |
| CDK12 (UniProt Q9NYV4) | inactive: 0.298 | inactive: 0.079 | inactive: 0.136 | active: -0.631 | inactive: 0.23 | inactive: -0.301 | inactive: -0.484 | inactive: -0.123 | inactive: 0.156 | inactive: -0.043 | inactive: -0.002 | inactive: 0.005 | inactive: 0.06 | inactive: 0.01 | inactive: 0.005 | inactive: 0.089 | inactive: -0.051 | inactive: -0.081 | inactive: 0.179 | inactive: -0.242 |
| CEP170 (UniProt Q5SW79) | inactive: 0.079 | inactive: -0.012 | inactive: 0.117 | inactive: -0.052 | inactive: 0.035 | inactive: -0.175 | inactive: -0.056 | inactive: -0.04 | inactive: 0.066 | inactive: -0.05 | inactive: 0.001 | inactive: 0.007 | inactive: 0.111 | inactive: 0.015 | inactive: 0.005 | inactive: -0.002 | inactive: -0.038 | inactive: -0.024 | inactive: 0.167 | inactive: -0.173 |
| CHMP5 (UniProt Q9NZZ3) | inactive: -0.113 | inactive: -0.052 | inactive: 0.017 | inactive: -0.006 | inactive: 0.094 | inactive: -0.024 | inactive: -0.008 | inactive: 0.066 | inactive: 0.011 | inactive: 0.053 | inactive: -0.044 | inactive: -0.013 | inactive: -0.103 | inactive: -0.044 | inactive: -0.014 | inactive: -0.028 | inactive: 0.012 | inactive: -0.023 | inactive: -0.016 | inactive: 0.012 |
| CDK1 (UniProt P06493) | inactive: 0.002 | inactive: -0.022 | inactive: 0.022 | inactive: -0.196 | inactive: -0.092 | inactive: -0.199 | inactive: -0.067 | inactive: -0.023 | inactive: -0.019 | inactive: 0.083 | inactive: -0.036 | inactive: 0.004 | inactive: -0.068 | inactive: -0.047 | inactive: 0 | inactive: 0.05 | inactive: 0.051 |  | inactive: -0.079 | inactive: -0.032 |
| CHMP2B (UniProt Q9UQN3) | inactive: -0.111 | inactive: 0.005 | inactive: 0.033 | inactive: -0.002 | inactive: 0.014 | inactive: -0.043 | inactive: 0.006 | inactive: 0.044 | inactive: -0.005 | inactive: 0.047 | inactive: 0.084 | inactive: 0.011 | inactive: -0.209 | inactive: 0.013 | inactive: 0.023 | inactive: 0.018 | inactive: 0.025 | inactive: 0.005 | inactive: -0.029 | inactive: 0.021 |
| CHMP1B (UniProt Q7LBR1) | inactive: -0.07 | inactive: 0.008 | inactive: -0.155 | inactive: 0.122 | inactive: -0.017 | inactive: -0.13 | inactive: 0.027 | inactive: -0.004 | inactive: -0.016 | inactive: 0.035 | inactive: 0.002 | inactive: -0.072 | inactive: -0.081 | inactive: -0.063 | inactive: 0.018 | inactive: 0.043 | inactive: 0.006 | inactive: 0.072 | inactive: -0.076 | inactive: -0.019 |
| CDC42EP4 (UniProt Q9H3Q1) | inactive: -0.02 | inactive: 0.021 | inactive: -0.01 | inactive: -0.11 | inactive: 0.013 | inactive: -0.079 | inactive: -0.045 | inactive: -0.016 | inactive: 0.008 | inactive: 0.056 | inactive: -0.023 |  | inactive: -0.059 | inactive: 0.171 | inactive: 0.001 | inactive: 0.171 | inactive: -0.011 | inactive: 0.009 | inactive: 0.075 | inactive: -0.078 |

Limited to log2 fold change [7], for some of the entries so far:
Target	log2 fold change [7]
CDK1 (UniProt P06493)	inactive: 0.004
CHMP2B (UniProt Q9UQN3)	inactive: 0.011
